Results from one PubChem assay

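Genome-wide siRNA knockdown in TC32 Ewing sarcoma cells, comparing luciferase light from an NR0B1-promoter reporter with a CMV-promoter reporter 48 hours after transfection. Each siRNA was applied at 20 nM. A z-score of the log NR0B1-over-CMV signal, less the median of siRNAs with the same seed; more negative means a stronger specific loss of the NR0B1 reporter.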

This is part of the screen; most of the strongest results are not listed here. Sequences are the guide (antisense) strand, without overhang.

siRNA	gene	seed-corrected z-score
UUCCGGACAAGGUAGCUAC	SHB	0.1303
UUACAUAACUUCGCUUUAC	CHORDC1	0.1968
UGCGGUAUAGAGGACCUGC	INTS1	0.8019
UAGGUUCAAGCGGCCUUCC	RIPPLY3	-0.7015
UUUGCUCUCGAGACUCUGC	PPP1R18	0.01103
UAAAUAGUAGUAGAUGAGC	ALG11	0.5119
UCUCUGAUAAGAAAGGAGC	BLK	-0.2704
AAAAACAUAAAGGAUUGGG	ACKR4	-0.05441
UAAUUUUCUCAGAUAGCUC	MSL1	0.04713
UUACAGUCAUGCAGUGAGG	FBXO48	0.05251
UGGAUUACCAAUGAGGAUG	FTO	0.07286
UAGAGAUCCUUCUAAACCC	FAM161B	-0.4978
AAAGUCACUGGAGCACAUC	SFRP5	0.2981
AUAAAUACUGUUGAUGUGG	BHLHE22	0.1193
AUAGUGACCUCAGUUAAUC	C15orf56	0.8458
UCCAAUAUGCCUUACAUCC	ZNF674	0.08381
UACCAUAUCAGAAGGUUCC	EHBP1	0.8226
UAGACGACGAACAGCACCG	GJD3	0.117
AAAGAUUCCAAUCAGUUGG	TSPAN6	-0.1218
UUGGUUGCAGAAUAGAUGG	HSD17B12	-0.07672
UACGUAAGAAUCACUGAUG	SRRM2	-0.9379
UUUUCUGCCGAUCUGUUUG	ASIP	1.041
UCGGGUUUGAUACUGGUUC	RNF32	0.7914
UGCAUAAUCCUCGAAUUCC	MFSD14A	0.5722
UGAAUAACGAAUGCUUUGC	CREG1	-0.1305
UCAGGUACUCAAGCACCGC	HIST1H2AB	0.09244
UCACUUAGGAAAUAGUACC	HOOK2	-1.275
UCUGUAGGCACUGCGAGUC	ARMC5	0.2634
UCUCUGUCCAUACAGCGCG	ZNF703	-0.2758
AAACUUGUUGACAAGCUGC	CNTD1	0.4606
UAUAUGAGUAGAUCAUCAG	TEKT1	0.3344
UAUGCUACAUUCUAUUUCC	THOC7	1.167
UGCUCAGCAAGUCUAUCUC	TRIP6	-0.3313
UAUCUUGAUAUGACAUUUG	MS4A14	-0.458
AUAAGGAAGACAUCGGUCA	RHOQ	0.4746
UUCGGGCUUCUUAACGUGC	TRMU	-0.4366
UGUUAACCAUGCUAUGUCC	KLHL15	0.0319
UUCAAUCUCAGAAGAACCC	MAVS	-0.5339
UAUGCUGUUUGGUUGUAAC	CD244	0.2213
UGUCAUAUUAAAGUCCCUG	PPM1H	-0.228
UAUGAUAACAGCUCUACGU	KRTAP13-2	0.2203
UAUUUGACCAUCUACUACG	PSG3	0.1809
AGCGGAUUUGCAGCACAGC	OR3A3	1.443
UGCACUGAGAUAGUGGUUG	BCL2L11	-0.5939
AAAGUUGAGGGUAUAAGCA	LOC643339	0.7727
UACACUUGUAGACUCGCUC	REST	-1.696
UUCAUGGAAAGGAUCACUC	PTPRE	-0.3066
UGUGAAUCUGGUGAAAGCC	LYPLA1	0.07979
UACAUUAUCAUGGGUUUGC	NFKBID	0.765
ACAGUUUCCAUGUACCAUC	TBL2	0.2328
UUCUGUCACAGACCAGAAC	TMEM185A	0.3905
UUAUAUGUCAGACCCAGCU	LY6G6C	-0.4471
UUUGUUGAAUCUGCGGGAC	SSBP3	0.1088
UCGGUCUUCAGACAUCAUC	GFPT2	-1.783

Repeated from the top, 4 entries:

siRNA	gene	seed-corrected z-score
UUCCGGACAAGGUAGCUAC	SHB	0.1303
UUACAUAACUUCGCUUUAC	CHORDC1	0.1968
UGCGGUAUAGAGGACCUGC	INTS1	0.8019
UAGGUUCAAGCGGCCUUCC	RIPPLY3	-0.7015

The results are deposited in PubChem (AID1159506; NCATS, 2015).